Experimental data reported in US20120177571A1, “PANCREATIC ENDOCRINE CELL INDICATING AGENT AND UTILIZATION OF SAME” (RIKEN, priority 2009, published 2012).
Not every detail of the peptide structures is certain; ends, links or a residue may be inferred.

Legend:
somatostatin receptor = type: in vivo, rat
pancreatic beta cells = type: in vivo; details: rat given 70 mg/kg Streptozotocin intraperitoneally; PET probe intravenous
Method: 70 mg of Streptozotocin (STZ), which is selectively toxic to the pancreatic beta cells, was intraperitoneally administered to a rat per kilogram of the weight of the rat. Thus, a diabetic rat whose pancreatic beta cells were damaged was prepared. Next, ^68Ga-DOTA-octreotide (PET probe) was intravenously administered to the model rat in accordance with the method in Example 1. Next, in accordance with the method in Example 1, the abdomen of the model rat was scanned with the use of a PET and image reconstruction was performed. […] Further, as in Example 1, organs etc. were removed from the model rat after the scan, and radioactivity in each of the organs etc. was quantified.

C[C@@H](O)[C@@H]1NC(=O)[C@H](CCCCN)NC(=O)[C@@H](Cc2c[nH]c3ccccc23)NC(=O)[C@H](Cc2ccccc2)NC(=O)[C@@H](NC(=O)[C@@H](Cc2ccccc2)NC(=O)CN2CCN(CC(=O)O)CCN(CC(=O)O)CCN(CC(=O)O)CC2)CSSC[C@@H](C(=O)N[C@H](CO)[C@@H](C)O)NC1=O [^68Ga-DOTA-octreotide, metal not drawn]
accumulation of the PET probe in pancreas (PET image) after blocking (somatostatin receptor; 1 mg unlabeled octreotide i.v. 1 minute before 1 nmol PET probe, healthy Sprague Dawley rat): remarkably reduced
reduction of accumulation of the PET probe in the pancreas due to the blocking (somatostatin receptor; removed organs, gamma counter, after 90 minute scan, 1 mg unlabeled octreotide pre-administered): approximately 96.6%
accumulation of the PET probe in pancreas (PET image), diabetic model rat (pancreatic beta cells): remarkably reduced
